Drawing on PubChem BioAssay AID256 (DTP/NCI, 2004), this text covers T/C and survivor count for eleven compounds.

This test relates to CD2F1 mice, L1210 leukemia ip, survival T/C. Put plainly: NCI In Vivo Anticancer Drug Screen. Data for tumor model L1210 Leukemia (intraperitoneal) in CD2F1 (CDF1) mice. Conditions: higher T/C = longer survival. The method, boiled down: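 Vehicle-treated tumor-bearing mice served as controls (C) for compound-treated mice (T). Reported figure is T divided by C.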
Setting [1] is: T/C endpoint: mean survival time, dose: 25.0 mg/kg/injection, schedule: Q01DX009 (ip), vehicle: saline with Tween-80.
Where [2] appears, read: T/C endpoint: mean survival time, dose: 125.0 mg/kg/injection, schedule: Q01DX001 (ip), vehicle: distilled water + Tween-80.
Where [3] appears, read: T/C endpoint: mean survival time, dose: 250.0 mg/kg/injection, schedule: Q01DX001 (ip), vehicle: distilled water + Tween-80.
Where [4] appears, read: T/C endpoint: mean survival time, dose: 500.0 mg/kg/injection, schedule: Q01DX001 (ip), vehicle: distilled water + Tween-80.
Where [5] appears, read: T/C endpoint: mean survival time, dose: 200.0 mg/kg/injection, schedule: Q01DX001 (ip), vehicle: DMSO.
Where [6] appears, read: T/C endpoint: mean survival time, dose: 400.0 mg/kg/injection, schedule: Q01DX001 (ip), vehicle: DMSO.

The list does not hold the whole screen: its compounds were picked by chemical class. Not every dose and run of a compound is shown. T/C gives the treated animals as a percentage of the vehicle group. Some entries give survivors of the animals treated and no T/C: the source files T/C as zero there, which appears to mark a toxic dose or a test without result, not a measured value. Counts of survivors are from the toxicity check (mostly the fifth day) where no day follows; animals may have died later. Schedules are NCI's codes, taken here to give the interval after Q, in days (D) or hours (H), and the number of doses after X. Some entries were tested several times; the values are given in rising order. Where survival is the endpoint, this PubChem deposit counts one and a half times the control or more as active, and values a quarter to a half above the control carry no call in these data; other NCI protocols may use other cut-offs. Some T/C values are followed by the survivors on the day toxicity was checked, most often the fifth; without a count or a note in brackets, all were alive then.

Take `C[N+](C)(C)c1ccccc1.F[P-](F)(F)(F)(F)F`: the T/C by setting is: (T/C endpoint: mean survival time, dose: 6.25 mg/kg/injection, schedule: Q01DX009 (ip), vehicle: saline with Tween-80) 86 % of control; (T/C endpoint: mean survival time, dose: 6.25 mg/kg/injection, schedule: Q04DX003 (ip), vehicle: saline with Tween-80) 97 % of control; (T/C endpoint: mean survival time, dose: 12.5 mg/kg/injection, schedule: Q01DX009 (ip), vehicle: saline with Tween-80) 100 % of control; (T/C endpoint: mean survival time, dose: 12.5 mg/kg/injection, schedule: Q04DX003 (ip), vehicle: saline with Tween-80) 97 % of control; under setting [1], 96 % of control; (T/C endpoint: mean survival time, dose: 25.0 mg/kg/injection, schedule: Q04DX003 (ip), vehicle: saline with Tween-80) 102 % of control.

For the compound `COC1OC(CNCCBr)C2OC(C)(C)OC12` (centres undefined), the T/C is 103 % of control (T/C endpoint: mean survival time, dose: 25.0 mg/kg/injection, schedule: Q01DX001 (ip), vehicle: saline); 121 % of control (T/C endpoint: mean survival time, dose: 50.0 mg/kg/injection, schedule: Q01DX001 (ip), vehicle: saline); 122 % of control (T/C endpoint: mean survival time, dose: 100.0 mg/kg/injection, schedule: Q01DX001 (ip), vehicle: saline); 116 % of control (T/C endpoint: mean survival time, dose: 200.0 mg/kg/injection, schedule: Q01DX001 (ip), vehicle: saline).

On to `Clc1ccc(P(Cl)Cl)cc1`, for which the T/C by setting is: (T/C endpoint: mean survival time, dose: 10.0 mg/kg/injection, schedule: Q01DX001 (ip), vehicle: saline with Tween-80) 103 % of control; (T/C endpoint: mean survival time, dose: 20.0 mg/kg/injection, schedule: Q01DX001 (ip), vehicle: saline with Tween-80) 95 % of control; (T/C endpoint: mean survival time, dose: 40.0 mg/kg/injection, schedule: Q01DX001 (ip), vehicle: saline with Tween-80) 103 % of control. Besides, the survivor count (T/C endpoint: mean survival time, dose: 100.0 mg/kg/injection, schedule: Q01DX001 (ip), vehicle: saline with Tween-80) is 3 of 6; the survivor count (T/C endpoint: mean survival time, dose: 200.0 mg/kg/injection, schedule: Q01DX001 (ip), vehicle: saline with Tween-80) is recorded as 1 of 6; the survivor count (T/C endpoint: mean survival time, dose: 400.0 mg/kg/injection, schedule: Q01DX001 (ip), vehicle: saline with Tween-80) is given as 0 of 6.

As to `O=P1(N(CCCl)CCCl)OCC2CN21` (centres undefined), the T/C by setting is: (T/C endpoint: mean survival time, dose: 7.8 mg/kg/injection, schedule: Q01DX001 (ip), vehicle: distilled water + Tween-80) 104 % of control; (T/C endpoint: mean survival time, dose: 15.6 mg/kg/injection, schedule: Q01DX001 (ip), vehicle: distilled water + Tween-80) 104 % of control; (T/C endpoint: mean survival time, dose: 31.3 mg/kg/injection, schedule: Q01DX001 (ip), vehicle: distilled water + Tween-80) 105 % of control; (T/C endpoint: mean survival time, dose: 62.5 mg/kg/injection, schedule: Q01DX001 (ip), vehicle: distilled water + Tween-80) 98, 119, 120 % of control; under setting [2], 91 % of control; under setting [3], 95 % of control. Moreover, the T/C under setting [4] is 106 % of control. The survivor count under setting [2] is 0 of 4 and 3 of 6; the survivor count under setting [3] is 0 of 4; the survivor count under setting [4] was 0 of 4.

As for `O=P1(Cl)OC(c2ccccc2)=CCN1CCCl` (centres undefined), the T/C is, setting by setting: (T/C endpoint: median survival time, dose: 31.25 mg/kg/injection, schedule: Q01DX001 (ip), vehicle: distilled water + Tween-80) 116 % of control; (T/C endpoint: median survival time, dose: 62.5 mg/kg/injection, schedule: Q01DX001 (ip), vehicle: distilled water + Tween-80) 101 % of control; (T/C endpoint: median survival time, dose: 125.0 mg/kg/injection, schedule: Q01DX001 (ip), vehicle: distilled water + Tween-80) 101 % of control; (T/C endpoint: median survival time, dose: 250.0 mg/kg/injection, schedule: Q01DX001 (ip), vehicle: distilled water + Tween-80) 104 % of control [5 of 6 alive]. Further, for the setting “T/C endpoint: median survival time, dose: 500.0 mg/kg/injection, schedule: Q01DX001 (ip), vehicle: distilled water + Tween-80”, the survivor count is given as 0 of 6.

With `COc1ccc(O)c2c(=O)c3c(OC)cc4c(c3oc12)[C@@H]1C=CO[C@@H]1O4`, the T/C under setting [1] was 159 % of control; the T/C (T/C endpoint: mean survival time, dose: 50.0 mg/kg/injection, schedule: Q01DX009 (ip), vehicle: saline with Tween-80) is 162 % of control; the T/C (T/C endpoint: mean survival time, dose: 100.0 mg/kg/injection, schedule: Q01DX009 (ip), vehicle: saline with Tween-80) was 115 % of control.

With `N#CC(O)CCOP(N)(=O)N(CCCl)CCCl` (centres undefined), the T/C is, setting by setting: (T/C endpoint: mean survival time, dose: 18.8 mg/kg/injection, schedule: Q01DX001 (ip), vehicle: DMSO) 110 % of control; (T/C endpoint: mean survival time, dose: 25.0 mg/kg/injection, schedule: Q01DX001 (ip), vehicle: DMSO, evaluated on day 25) 111 % of control; (T/C endpoint: mean survival time, dose: 25.0 mg/kg/injection, schedule: Q01DX001 (ip), vehicle: DMSO, evaluated on day 40) 108 % of control; (T/C endpoint: mean survival time, dose: 37.5 mg/kg/injection, schedule: Q01DX001 (ip), vehicle: DMSO) 117 % of control; (T/C endpoint: mean survival time, dose: 50.0 mg/kg/injection, schedule: Q01DX001 (ip), vehicle: DMSO, evaluated on day 25) 127 % of control; (T/C endpoint: mean survival time, dose: 50.0 mg/kg/injection, schedule: Q01DX001 (ip), vehicle: DMSO, evaluated on day 40) 123 % of control. Further, the T/C was 119 % of control (T/C endpoint: mean survival time, dose: 75.0 mg/kg/injection, schedule: Q01DX001 (ip), vehicle: DMSO); 195 % of control [5 of 6 alive] (T/C endpoint: mean survival time, dose: 100.0 mg/kg/injection, schedule: Q01DX001 (ip), vehicle: DMSO, evaluated on day 25); 141 % of control (T/C endpoint: mean survival time, dose: 100.0 mg/kg/injection, schedule: Q01DX001 (ip), vehicle: DMSO, evaluated on day 40); 138 % of control (T/C endpoint: mean survival time, dose: 150.0 mg/kg/injection, schedule: Q01DX001 (ip), vehicle: DMSO). Moreover, the survivor count under setting [5] was 0 of 6 and 3 of 6; the survivor count under setting [6] is 0 of 6.

Take `O[As](O)O.S=C(S)c1ccccc1S`: the T/C (T/C endpoint: mean survival time, dose: 25.0 mg/kg/injection, schedule: Q01DX009 (ip), vehicle: saline) was 103 % of control; the T/C (T/C endpoint: mean survival time, dose: 25.0 mg/kg/injection, schedule: Q04DX003 (ip), vehicle: saline) is 102 % of control; the T/C (T/C endpoint: mean survival time, dose: 50.0 mg/kg/injection, schedule: Q01DX009 (ip), vehicle: saline) is 107 % of control [5 of 6 alive]; the T/C (T/C endpoint: mean survival time, dose: 50.0 mg/kg/injection, schedule: Q04DX003 (ip), vehicle: saline) is 102 % of control; the T/C (T/C endpoint: mean survival time, dose: 100.0 mg/kg/injection, schedule: Q04DX003 (ip), vehicle: saline) is 104 % of control [4 of 6 alive]. In addition, where the note is “T/C endpoint: mean survival time, dose: 100.0 mg/kg/injection, schedule: Q01DX009 (ip), vehicle: saline”, the survivor count is on record as 0 of 6.

Regarding `O=P1(N(CCCl)CCCl)Oc2ccccc2O1`, the T/C reads like this: (T/C endpoint: mean survival time, dose: 62.5 mg/kg/injection, schedule: Q01DX001 (ip), vehicle: other) 116 % of control; (T/C endpoint: mean survival time, dose: 125.0 mg/kg/injection, schedule: Q01DX001 (ip), vehicle: other) 118 % of control. The survivor count is reported as 3 of 6 (T/C endpoint: mean survival time, dose: 250.0 mg/kg/injection, schedule: Q01DX001 (ip), vehicle: other) and 1 of 6 (T/C endpoint: mean survival time, dose: 500.0 mg/kg/injection, schedule: Q01DX001 (ip), vehicle: other).

In the case of `CCCCCCCCCCCCOP(OCC)OCC`, the T/C by setting is: (T/C endpoint: mean survival time, dose: 100.0 mg/kg/injection, schedule: Q04DX002 (ip), vehicle: saline with Tween-80) 96 % of control; (T/C endpoint: mean survival time, dose: 200.0 mg/kg/injection, schedule: Q04DX002 (ip), vehicle: saline with Tween-80) 92 % of control. Moreover, the survivor count (T/C endpoint: mean survival time, dose: 400.0 mg/kg/injection, schedule: Q04DX002 (ip), vehicle: saline with Tween-80) is given as 1 of 3.

As for `CS(=O)(=O)OCCCOP(N)(=O)N(CCCl)CCCl` (centres undefined), the T/C runs as follows: (T/C endpoint: mean survival time, dose: 25.0 mg/kg/injection, schedule: Q01DX001 (ip), vehicle: DMSO) 101 % of control; (T/C endpoint: mean survival time, dose: 50.0 mg/kg/injection, schedule: Q01DX001 (ip), vehicle: DMSO) 95 % of control; (T/C endpoint: mean survival time, dose: 100.0 mg/kg/injection, schedule: Q01DX001 (ip), vehicle: DMSO) 101 % of control; under setting [5], 95 % of control; under setting [6], 107 % of control.
